From the supplement of paper PMC12889115
The list shows a part of the results. Values are raw readings; no control value is given beside them.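 In the initial screen, polymyxin B was used at a concentration that permeabilizes Salmonella's outer membrane but not its inner membrane. Maximum growth was set by DMSO wells with or without polymyxin B. Since plates varied, data were ranked per plate, and compounds giving the lowest OD600 advanced as hits.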

Tested on: Salmonella enterica serovar Typhimurium SL1344
Assay: bacterial growth OD600 after 18 h with compound and polymyxin B; higher = more bacterial growth (less inhibition)
Settings: 50 µM, Mueller-Hinton broth

SMILES | bacterial growth OD600 (polymyxin B 0.75 µg/mL) | bacterial growth OD600 (polymyxin B 1 µg/mL)
CN1CCC(N(C)C(=O)CC(c2ccccc2)c2ccccc2F)CC1 (centres undefined) | 0.643 | –
CCc1csc(CNC(=O)c2ccc(NC3CCOC3)nc2)n1 (centres undefined) | – | 0.818
C[C@@H]1CN(C2(C(=O)NCCOc3cccnc3)Cc3ccccc3C2)C[C@H](C)O1 | – | 1.13
CSCC(=O)NC1CC(=O)N(CCc2ccccc2)C1 (centres undefined) | – | 1.05
COCCN1C(=O)NC(Cc2ccc(F)cc2)(C2CCN(C(=O)C#Cc3ccccc3)CC2)C1=O (centres undefined) | 0.734 | –
COc1ccc(CC2(CCC(=O)NCCn3ccc4ccccc43)CCC(=O)N2)c2ccccc12 (centres undefined) | 0.854 | –
Fc1cccc(CN2CCC(C3CCN(Cc4ncc[nH]4)C3)CC2)c1F (centres undefined) | 0.806 | –
CCn1c(-c2ccccc2F)nc2cc(C(=O)N3CCSCC3)cc(NC(C)=O)c21 | 0.848 | –
OCC#Cc1ccc(CN2CC[C@@H](N3CCN(c4ccccc4F)CC3)[C@H](O)C2)s1 | 0.758 | –
